From ChEMBL document CHEMBL3988442, “University of Dundee, Small-Polar-MMV Screening Library” (2021).

Chains of the proteins cited; added tags and fusions are not shown.
UniProt P9WFT3, whole entry: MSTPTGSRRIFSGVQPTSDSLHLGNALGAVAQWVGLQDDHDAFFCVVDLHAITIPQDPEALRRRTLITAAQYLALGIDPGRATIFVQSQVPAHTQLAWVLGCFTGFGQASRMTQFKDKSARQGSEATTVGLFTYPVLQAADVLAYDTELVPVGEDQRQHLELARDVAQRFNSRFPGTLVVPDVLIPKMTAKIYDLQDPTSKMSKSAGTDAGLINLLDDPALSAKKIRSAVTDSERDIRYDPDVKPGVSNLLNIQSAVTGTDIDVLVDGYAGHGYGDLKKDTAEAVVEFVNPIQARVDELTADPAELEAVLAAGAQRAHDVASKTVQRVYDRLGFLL

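Tryptophan-tRNA ligase, Mycobacterium tuberculosis (UniProt P9WFT3). Enzyme assay of tryptophanyl-tRNA synthetase; the read-out is not stated. Compounds at 10 µM. Direction is not recorded; retested compounds ran higher, which suggests that high means inhibition. About 65,000 compounds were tested under these conditions; 0.098% (about 64) showed 50% or more at least once.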

Each number is a percent effect as filed.
How 0% and 100% were set is not recorded. Most values in the screen are low, and negative values occur.
The compounds are a random part of those screened.

{"compound": "CC(C)N1CCOC(CC(=O)N2CCCN(Cc3cccs3)CC2)C1", "stereo": "stereo not drawn", "percent effect": -4.542}
{"compound": "CN(C)C(=O)COc1ccccc1CNC1CCc2ncnn2C1", "stereo": "stereo not drawn", "percent effect": -0.9372}
{"compound": "CCN1CCN(C)C(=O)C12CCN(Cc1cccc(C)c1)CC2", "percent effect": 3.8}
{"compound": "CC(=O)N1CCC(N[C@@H]2CO[C@H](CNC(=O)c3cccs3)[C@H]2O)CC1", "percent effect": 13.18}
{"compound": "Cc1ccc(OC2(C(=O)O)CCN(C(=O)c3ccoc3C)CC2)cn1", "percent effect": 3.159}
{"compound": "Cc1cc2n(n1)CC(CNC1CCN(C(=O)C3CC3)CC1)CN2", "stereo": "stereo not drawn", "percent effect": 12.23}
{"compound": "O=C(NCCc1cccs1)[C@H]1CO[C@H]2CCNC[C@H]2C1", "percent effect": 2.877}
{"compound": "NC(=O)C1CCN(CC(=O)NCCn2cc(Cl)cn2)CC1", "percent effect": 14.4}
{"compound": "Cc1cc(=O)n(C)cc1NC(=O)Cc1cccc(F)c1", "percent effect": 7.154}
{"compound": "O=C(O)c1ccn(-c2cccc(NC(=O)c3ccccc3Cl)c2)n1", "percent effect": -6.881}
{"compound": "CCC[C@@H]1CN(C(=O)c2conc2-c2ccccc2)C[C@H]1N(C)C", "percent effect": -2.252}
{"compound": "CN1CCCC1c1ccnc(-c2ccccn2)n1", "stereo": "stereo not drawn", "percent effect": -6.861}
{"compound": "N#Cc1ccc(NCCCOCC2CCCO2)c(F)c1", "stereo": "stereo not drawn", "percent effect": -1.638}
{"compound": "N#CCCN(CCC#N)C(=O)CN(C1CC1)C1CCc2ccccc21", "stereo": "stereo not drawn", "percent effect": -0.9855}
{"compound": "COc1ccc(-c2nc(CN3CCCC3Cn3cccn3)no2)cc1", "stereo": "stereo not drawn", "percent effect": 1.519}
{"compound": "Cc1c[nH]nc1C1CCCN(C(=O)Cn2cccn2)C1", "stereo": "stereo not drawn", "percent effect": -8.471}
{"compound": "CN(C)[C@@H]1CCN(c2ncc(F)cn2)[C@H]1Cc1ccccc1", "percent effect": -4.182}
{"compound": "O=C(c1cc(-n2cccn2)ccc1Cl)N1CCC(N2CCCC2=O)CC1", "percent effect": 1.253}
{"compound": "Cc1ccc(OC2CCN(CCn3cncn3)CC2)cc1", "percent effect": -3.614}
{"compound": "Cc1nc(CN2CCOC(Cn3cccn3)C2)no1", "stereo": "stereo not drawn", "percent effect": -3.634}
{"compound": "Cc1ccc(N2CC[C@@H]3[C@@H]2CCN3C(=O)c2cscn2)nn1", "percent effect": -2.885}
{"compound": "CCCn1nnnc1COc1ccc(C(=O)OC)cc1", "percent effect": 0.5939}
{"compound": "Cc1nc(C)n(C2CCCN(C(=O)COCc3ccccc3)C2)n1", "stereo": "stereo not drawn", "percent effect": 1.998}
{"compound": "CN(C)CC1(O)CCCN(C(=O)c2ccccc2-n2cncn2)C1", "stereo": "stereo not drawn", "percent effect": 2.147}
{"compound": "CCn1c(CN(C)C)nnc1C1CCN(Cc2cccc(OC)c2)CC1", "percent effect": -2.071}
{"compound": "Cc1ccc(C(CNCc2c[nH]nc2C)N(C)C)cc1", "stereo": "stereo not drawn", "percent effect": 6.507}
{"compound": "CN(C)C(=O)[C@H]1C[C@H]2[C@H](CCN2Cc2ccc3c(c2)OCO3)O1", "percent effect": -1.395}
{"compound": "CCC(C)(C)NC(=O)Cn1cc(C(N)=O)c(-c2ccccc2)n1", "percent effect": 4.024}
{"compound": "CCCC1CCCN(C(=O)CNC(=O)c2ccoc2C)CC1", "stereo": "stereo not drawn", "percent effect": -1.65}
{"compound": "CC(C(=O)N(C)C1CCCCC1)S(=O)(=O)Cc1csc(-c2cccs2)n1", "stereo": "stereo not drawn", "percent effect": 1.718}
{"compound": "CSc1ccc(-c2nc(CN3CCCC(CNC(C)=O)C3)c(C)o2)cc1", "stereo": "stereo not drawn", "percent effect": -3.957}
{"compound": "CCn1cc(NC(=O)C2CCN(Cc3ccccc3C#N)CC2)cn1", "percent effect": -0.4873}
{"compound": "CCc1cc(=O)[nH]c2nnc(SCC(=O)NC)n12", "percent effect": 2.189}
{"compound": "NC(=O)CN(C(=O)c1cccc(C(F)(F)F)c1)C1CCCC1", "percent effect": 3.838}
{"compound": "COCCN1CCCC(c2ccnc3c(C(N)=O)cnn23)C1", "stereo": "stereo not drawn", "percent effect": -2.474}
{"compound": "CC(NC(=O)NCCCn1cncn1)c1ccc(C#N)cc1", "stereo": "stereo not drawn", "percent effect": 0.8708}
{"compound": "Cc1ccc(C(CNC(=O)c2c(C)noc2C(C)C)N(C)C)cc1", "stereo": "stereo not drawn", "percent effect": -3.078}
{"compound": "COc1ccc(CNC(C)c2cnc3cc(C)nn3c2C)cc1", "stereo": "stereo not drawn", "percent effect": -7.105}
{"compound": "Cc1n[nH]c(C)c1CC(=O)NCCc1ccccc1", "percent effect": -2.488}
{"compound": "Fc1ccc(OCCCN2CCOC(Cn3cncn3)C2)cc1", "stereo": "stereo not drawn", "percent effect": 3.216}
{"compound": "CC(C)(CNC(=O)CCCOc1cccc(F)c1)C(N)=O", "percent effect": -1.144}
{"compound": "CCS(=O)(=O)NCCNc1c(C#N)cnc2c(C)cc(F)cc12", "percent effect": 0.2742}
{"compound": "O=S(=O)(CCCN1CCCC1Cn1cccn1)c1ccccc1", "stereo": "stereo not drawn", "percent effect": 0.07337}
{"compound": "CN1CCc2c(C#N)c(NCC3CCCO3)n3cnnc3c2C1", "stereo": "stereo not drawn", "percent effect": 1.84}
{"compound": "CCS(=O)(=O)N1CCc2c(cccc2NCc2nc(C)c(C)o2)C1", "percent effect": 2.649}
{"compound": "NC(=O)NCC(=O)N1CCCC(c2nccn2Cc2ccncc2)C1", "stereo": "stereo not drawn", "percent effect": -0.9428}
{"compound": "Cc1cc(C(=O)NCCSC2CCCC2)no1", "percent effect": 0.4566}
{"compound": "COc1cccc(CN(C)Cn2nc(C(C)(C)C)ccc2=O)c1", "percent effect": -3.609}
{"compound": "Cc1ccc2c(ccn2CC(=O)NC[C@@H]2CCCN3CCCC[C@H]23)c1", "percent effect": -5.628}
{"compound": "CC(C)(C)CC(=O)NCC(=O)NCC(O)c1ccc2ccccc2c1", "stereo": "stereo not drawn", "percent effect": -2.961}
{"compound": "CCN(CC)c1ncnc2c1CCN(CC1CCOCC1)CC2", "percent effect": 0.834}
{"compound": "CC1CCN(CC2CCCN(C(=O)Nc3ccccn3)C2)CC1", "stereo": "stereo not drawn", "percent effect": -2.611}
{"compound": "CC1COCCN1Cc1nc(-c2cccs2)no1", "stereo": "stereo not drawn", "percent effect": -1.33}
{"compound": "Cc1cc(F)c(S(=O)(=O)NCCCN2CCC(O)CC2)cc1F", "percent effect": -4.06}
{"compound": "CN(C)c1cc(CNC(=O)c2n[nH]c(=O)c3ccccc23)ccn1", "percent effect": -1.755}
{"compound": "Cc1ncc2c(c1C(=O)O)CCN(c1ncc(F)cn1)C2", "percent effect": 0.4937}
{"compound": "CC(C)CCN1Cc2c(C(=O)N3CCCC3)nn(C)c2C1", "percent effect": 15.6}
{"compound": "Fc1ccc(CN2CCCC(c3nnc(-c4cnccn4)o3)C2)cc1F", "stereo": "stereo not drawn", "percent effect": -1.589}

For reference, 3 entries once more:

{"compound": "Cc1nc(C)n(C2CCCN(C(=O)COCc3ccccc3)C2)n1", "stereo": "stereo not drawn", "percent effect": 1.998}
{"compound": "Cc1ncc2c(c1C(=O)O)CCN(c1ncc(F)cn1)C2", "percent effect": 0.4937}
{"compound": "Cc1nc(CN2CCOC(Cn3cccn3)C2)no1", "stereo": "stereo not drawn", "percent effect": -3.634}